# Laboratory results: PubChem BioAssay AID743121 (NCATS, 2013)
# Aim: 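Partners whose loss is lethal together with topoisomerase I blockade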 (primary screen)
# Cell system: MDA-MB-231 cells, a human breast cancer line
# Knock-down reagent: single siRNA against human genes, 20 nM siRNA (0.8 pmol per well)
# Time to read-out: 120 h (drug added 48 h after transfection, read 72 h later)
# Challenge: camptothecin 20 nM (about EC30) for 72 h; vehicle 0.1% DMSO in parallel plates
# Measurement: 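Cell viability by ATP luminescence (CellTiter-Glo) as % of non-targeting siRNA wells, and the log2 ratio of viability without drug over viability with camptothecin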
# Direction: log2 vehicle/camptothecin viability: higher = stronger sensitisation to camptothecin; viability with camptothecin: higher = more viable cells
# Call rule: 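Each gene scored by redundant siRNA activity (RSA) over its individual siRNA ratios; a gene is called active at p < 0.001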
# The deposit covers about 26,000 reagents; below is an unselected part. 167 of them (0.63%) were called active. 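Calls are per gene from RSA p-values that are not deposited; an individual active-marked siRNA can sensitise only weakly.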 A number with no mark means an inactive call. Reagents against one gene are numbered here. Further read-outs or replicates are left out here.
gene knocked down,reagent no.,log2 vehicle/camptothecin viability,viability with camptothecin (% of control)
LASP1 (LIM and SH3 protein 1),1,-0.0541,117
LASP1 (LIM and SH3 protein 1),2,-0.168,70.4
LASP1 (LIM and SH3 protein 1),3,-0.0432,103
LASP1 (LIM and SH3 protein 1),4,-0.581,65.1
USP19 (ubiquitin specific peptidase 19),1,0.6,52
USP19 (ubiquitin specific peptidase 19),2,-0.152,40.4
USP19 (ubiquitin specific peptidase 19),3,-0.22,82.3
USP19 (ubiquitin specific peptidase 19),4,-0.368,86.2
"PIM3 (Pim-3 proto-oncogene, serine/threonine kinase)",1,-0.318,102
"PIM3 (Pim-3 proto-oncogene, serine/threonine kinase)",2,-0.147,79.9
"PIM3 (Pim-3 proto-oncogene, serine/threonine kinase)",3,-0.0367,96.4
"PIM3 (Pim-3 proto-oncogene, serine/threonine kinase)",4,-0.286,97.7
"PIM3 (Pim-3 proto-oncogene, serine/threonine kinase)",5,0.242,77.8
"PIM3 (Pim-3 proto-oncogene, serine/threonine kinase)",6,-0.174,107
CCL3L1 (C-C motif chemokine ligand 3 like 1),1,0.0789,42.7
CCL3L1 (C-C motif chemokine ligand 3 like 1),2,-0.147,98.8
SHBG (sex hormone binding globulin),1,0.00729,70.4
SHBG (sex hormone binding globulin),2,-0.0862,73.2
SHBG (sex hormone binding globulin),3,-0.571,21.1
SHBG (sex hormone binding globulin),4,-0.242,98.5
ADAM15 (ADAM metallopeptidase domain 15),1,-0.346,128
ADAM15 (ADAM metallopeptidase domain 15),2,-0.0832,103
ADAM15 (ADAM metallopeptidase domain 15),3,-0.135,55.9
ADAM15 (ADAM metallopeptidase domain 15),4,0.155,50.1
ARSD (arylsulfatase D),1,-0.262,72.6
ARSD (arylsulfatase D),2,-0.0878,39.9
ARSD (arylsulfatase D),3,-0.233,91.4
ARSD (arylsulfatase D),4,0.42,63.4
MIF (macrophage migration inhibitory factor),1,0.176,80.9
MIF (macrophage migration inhibitory factor),2,-0.0166,102
MIF (macrophage migration inhibitory factor),3,0.299,57.2
"M6PR (mannose-6-phosphate receptor, cation dependent)",1,0.0482,105
"M6PR (mannose-6-phosphate receptor, cation dependent)",2,-0.204,127
"M6PR (mannose-6-phosphate receptor, cation dependent)",3,-0.341,61.6
"M6PR (mannose-6-phosphate receptor, cation dependent)",4,0.000425,83.8
IGFBP1 (insulin like growth factor binding protein 1),1,-0.547,56
IGFBP1 (insulin like growth factor binding protein 1),2,-0.268,44.6
IGFBP1 (insulin like growth factor binding protein 1),3,0.0542,80.5
HTR1F (5-hydroxytryptamine receptor 1F),1,0.169,86.7
HTR1F (5-hydroxytryptamine receptor 1F),2,0.545,63.1
HTR1F (5-hydroxytryptamine receptor 1F),3,0.777,53.5
HTR1F (5-hydroxytryptamine receptor 1F),4,-0.248,81.8
RSPO3 (R-spondin 3),1,-0.234,111
RSPO3 (R-spondin 3),2,-0.0487,97.4
RSPO3 (R-spondin 3),3,-0.291,56.2
KCTD20 (potassium channel tetramerization domain containing 20),1,-0.0382,65.8
KCTD20 (potassium channel tetramerization domain containing 20),2,-0.477,40.8
KCTD20 (potassium channel tetramerization domain containing 20),3,0.328,66.1
KCTD20 (potassium channel tetramerization domain containing 20),4,0.00518,44.6
SUMO2 (small ubiquitin like modifier 2),1,0.325,32.2
SUMO2 (small ubiquitin like modifier 2),2,-0.218,113
SUMO2 (small ubiquitin like modifier 2),3,0.502,53.6
GPX1 (glutathione peroxidase 1),1,-0.257,44.2
GPX1 (glutathione peroxidase 1),2,-0.308,56.3
GPX1 (glutathione peroxidase 1),3,-0.179,102
FBXO8 (F-box protein 8),1,0.173,106
FBXO8 (F-box protein 8),2,-0.584,63.4
FBXO8 (F-box protein 8),3,0.388,47.2
FBXO8 (F-box protein 8),4,-0.276,120
DCLRE1B (DNA cross-link repair 1B),1,-0.0309,15.6
DCLRE1B (DNA cross-link repair 1B),2,0.467,40.7
DCLRE1B (DNA cross-link repair 1B),3,-0.115,82.1
CSNK2B (casein kinase 2 beta),1,-0.375,98.5
CSNK2B (casein kinase 2 beta),2,-0.029,58
CSNK2B (casein kinase 2 beta),3,-0.406,69
CSNK2B (casein kinase 2 beta),4,-0.217,81.3
MRPL35 (mitochondrial ribosomal protein L35),1,-0.527,57.8
MRPL35 (mitochondrial ribosomal protein L35),2,-0.253,97
MRPL35 (mitochondrial ribosomal protein L35),3,-0.205,103
MRPL35 (mitochondrial ribosomal protein L35),4,-0.0655,90.4

Entries above whose gene name begins with P or p (6):
gene knocked down,reagent no.,log2 vehicle/camptothecin viability,viability with camptothecin (% of control)
"PIM3 (Pim-3 proto-oncogene, serine/threonine kinase)",1,-0.318,102
"PIM3 (Pim-3 proto-oncogene, serine/threonine kinase)",2,-0.147,79.9
"PIM3 (Pim-3 proto-oncogene, serine/threonine kinase)",3,-0.0367,96.4
"PIM3 (Pim-3 proto-oncogene, serine/threonine kinase)",4,-0.286,97.7
"PIM3 (Pim-3 proto-oncogene, serine/threonine kinase)",5,0.242,77.8
"PIM3 (Pim-3 proto-oncogene, serine/threonine kinase)",6,-0.174,107
